Measurements reported in PubChem BioAssay AID504791 (Drosophila RNAi Screening Center, 2011).
Screen: 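Factors in Argonaute-based small RNA production and activity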 (primary screen). Cells: Drosophila S2-derived reporter cells. Reagent: long dsRNA against Drosophila genes, about 150-250 ng dsRNA per well (siRNA assay); about 80-120 ng (miRNA assay). Timing: about 5 days (siRNA assay); about 4 days (miRNA assay). Challenge: copper sulfate induction of reporters: 25 µM (siRNA assay); 200 mM stated (miRNA assay), 1-2 days before reading. Measured: 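Per-well ratio of Renilla over firefly light, expressed relative to that plate's average ratio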. Reading the numbers: siRNA reporter hit score: higher = 3 marks a strong hit with raised ratio; -3 a strong hit with lowered ratio. Rule for the call: 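a well was a first-pass pick when its plate-scaled ratio rose above 1.5 (siRNA assay) or 1.6 (miRNA assay), or dropped below 0.6; a gene counted only if two separate dsRNAs agreed on retest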.
The screen tested about 23,000 reagents; below is an unselected part of those that have a named target and a result. In the full data, 199 (0.86%) got an active call. 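Plate-scaled ratios behind the calls are not deposited; printed light signals are raw; many rows marked increased or decreased are still called inactive.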 A plus sign joins genes that one reagent is predicted to hit.

| target gene | DRSC id | siRNA reporter hit score | stable siRNA reporter change | miRNA reporter change | stable assay Renilla, run 1 (luminescence) | stable assay firefly, run 1 (luminescence) | Outcome |
| --- | --- | --- | --- | --- | --- | --- | --- |
| CG2070 | DRSC06814 | – | – | – | 6072 | 3.74e5 | inactive |
| ytr (yantar) | DRSC04306 | – | – | – | 21162 | 8.78e5 | inactive |
| ytr (yantar) | DRSC22073 | – | – | – | 8867 | 5.68e5 | inactive |
| CanB2 (Calcineurin B2) | DRSC07355 | – | – | – | 2648 | 2.72e5 | inactive |
| Tsp29Fa (Tetraspanin 29Fa) | DRSC03232 | – | – | – | 6991 | 3.50e5 | inactive |
| CG18343 | DRSC06726 | – | – | – | 6690 | 4.53e5 | inactive |
| CG9674 | DRSC11088 | – | – | – | 8479 | 3.18e5 | inactive |
| CG9674 | DRSC11089 | – | – | – | 7583 | 2.73e5 | inactive |
| CG15643 | DRSC19679 | – | – | – | 5604 | 4.85e5 | inactive |
| CG14696 | DRSC14919 | – | – | – | 6663 | 3.61e5 | inactive |
| CG8320 + ATPCL | DRSC07147 | – | – | – | 6394 | 3.74e5 | inactive |
| CG4928 | DRSC19342 | – | – | – | 8071 | 5.23e5 | inactive |
| Xpc (Xeroderma pigmentosum, complementation group C) | DRSC07654 | – | – | – | 11697 | 4.47e5 | inactive |
| Bacc (Bacchus) | DRSC00735 | – | – | – | 7338 | 3.61e5 | inactive |
| ATP7 | DRSC19819 | – | – | – | 7070 | 5.41e5 | inactive |
| CG2772 | DRSC00530 | – | – | – | 7318 | 3.69e5 | inactive |
| CG1075 (retired record) | DRSC12144 | – | – | – | 6246 | 3.65e5 | inactive |
| CG5326 | DRSC13568 | – | – | – | 4979 | 3.28e5 | inactive |
| CG5326 | DRSC15770 | – | – | – | 9209 | 3.74e5 | inactive |
| CG12974 | DRSC11684 | – | – | – | 7918 | 4.65e5 | inactive |
| CG30350 | DRSC07690 | – | – | – | 6742 | 4.76e5 | inactive |
| pyx (pyrexia) | DRSC08510 | – | – | – | 6442 | 3.64e5 | inactive |
| pyx (pyrexia) | DRSC08511 | – | – | – | 7259 | 4.10e5 | inactive |
| CG33978 | DRSC17106 | – | – | – | 6407 | 3.38e5 | inactive |
| csw (corkscrew) | DRSC18756 | – | – | reporter ratio lowered past the hit cutoff | 5267 | 3.65e5 | inactive |
| csw (corkscrew) | DRSC23326 | – | – | – | 3988 | 2.58e5 | inactive |
| CG13748 | DRSC06419 | – | – | – | 5842 | 3.21e5 | inactive |
| CG42675 | DRSC12157 | – | – | – | 8556 | 5.08e5 | inactive |
| CG42675 | DRSC21868 | – | – | – | 10566 | 8.22e5 | inactive |
| CG2006 | DRSC15412 | – | – | – | 3632 | 4.00e5 | inactive |
| RhoGAP54D (Rho GTPase activating protein at 54D) | DRSC06990 | – | – | – | 5655 | 2.93e5 | inactive |
| Pfdn2 (Prefoldin 2) | DRSC10618 | – | – | – | 5976 | 4.54e5 | inactive |
| CG13185 | DRSC06310 | – | – | – | 9224 | 5.75e5 | inactive |
| CG31323 | DRSC14901 | – | – | – | 6959 | 4.15e5 | inactive |
| LysX (Lysozyme X) | DRSC08678 | – | – | – | 6319 | 4.16e5 | inactive |
| Ccn | DRSC09504 | – | – | – | 5551 | 3.88e5 | inactive |
| Ccn | DRSC09506 | – | – | – | 4938 | 3.81e5 | inactive |
| Ccn | DRSC10062 | – | – | – | 8620 | 2.49e5 | inactive |
| Ccn | DRSC10063 | – | – | – | 8003 | 6.02e5 | inactive |
| Fbl6 (F-box and leucine-rich repeat protein 6) | DRSC06335 | – | – | – | 7191 | 5.48e5 | inactive |
| Prx4 (Peroxiredoxin 4) | DRSC08668 | – | – | – | 6348 | 3.60e5 | inactive |
| gas (gasoline) | DRSC04521 | – | – | – | 6631 | 3.84e5 | inactive |
| CG31091 | DRSC15933 | – | – | – | 6542 | 3.62e5 | inactive |
| Pi4KIIalpha (Phosphatidylinositol 4-kinase II alpha) | DRSC12322 | – | – | – | 7758 | 4.33e5 | inactive |
| Pi4KIIalpha (Phosphatidylinositol 4-kinase II alpha) | DRSC12323 | – | – | – | 5951 | 3.90e5 | inactive |
| CG3527 | DRSC18307 | – | – | – | 4831 | 2.88e5 | inactive |
| Eip74EF (Ecdysone-induced protein 74EF) | DRSC10613 | – | – | – | 6143 | 2.25e5 | inactive |
| Eip74EF (Ecdysone-induced protein 74EF) | DRSC11160 | – | – | – | 5959 | 2.47e5 | inactive |
| Tsp68C (Tetraspanin 68C) | DRSC09295 | – | – | – | 6743 | 6.40e5 | inactive |
| Mlp84B (Muscle LIM protein at 84B) | DRSC12596 | – | – | – | 7134 | 4.45e5 | inactive |
| CG12692 | DRSC17881 | – | – | – | 5823 | 3.04e5 | inactive |
| numb | DRSC03584 | – | – | – | 8226 | 1.08e6 | inactive |
| CG12384 | DRSC06145 | – | reporter ratio raised past the hit cutoff | – | 3424 | 3.69e5 | inactive |
| CG11898 | DRSC14432 | – | – | – | 4686 | 4.22e5 | inactive |
| Det (Deterin) | DRSC14489 | – | – | – | 7842 | 3.84e5 | inactive |
| CG16710 | DRSC15136 | -3 | – | – | 6608 | 5.03e5 | inactive |
| CG16894 | DRSC06634 | – | – | – | 4796 | 3.82e5 | inactive |
| CG16894 | DRSC21785 | – | – | – | 9682 | 6.58e5 | inactive |
| CG31321 | DRSC13028 | – | – | – | 5403 | 5.42e5 | inactive |
| Trf4-2 (Topoisomerase related function 4-2) | DRSC15237 | – | – | – | 6922 | 3.69e5 | inactive |
| snky (sneaky) | DRSC09838 | – | – | – | 6522 | 4.00e5 | inactive |
| CG42354 + CG42353 | DRSC20172 | – | – | – | 5920 | 2.51e5 | inactive |
| Sox14 (Sox box protein 14) | DRSC04656 | – | – | – | 5376 | 3.89e5 | inactive |
| Sox14 (Sox box protein 14) | DRSC27025 | – | – | reporter ratio lowered past the hit cutoff | – | – | active |
| Pxt (Peroxinectin-like) | DRSC17040 | – | – | – | 5311 | 4.14e5 | inactive |
| CG31642 | DRSC02919 | – | – | – | 21109 | 5.62e5 | inactive |
| CG11257 | DRSC06068 | – | – | – | 6639 | 3.49e5 | inactive |
| ND-B14.5A (NADH dehydrogenase (ubiquinone) B14.5 A subunit) | DRSC18500 | – | – | – | 5143 | 3.39e5 | inactive |
| BomS3 (Bomanin Short 3) | DRSC21458 | – | – | – | 9573 | 6.34e5 | inactive |
| CG40498 | DRSC07786 | – | – | – | 6591 | 4.72e5 | inactive |
| CG6479 | DRSC10647 | – | – | – | 8295 | 4.03e5 | inactive |
| Ccdc85 | DRSC00501 | – | – | – | 5847 | 2.49e5 | inactive |
| Ccdc85 | DRSC23173 | – | – | – | 4155 | 3.01e5 | inactive |
| Or43a (Odorant receptor 43a) | DRSC07485 | – | – | – | 5860 | 3.94e5 | inactive |
| CG7692 | DRSC10902 | – | – | – | 7072 | 4.22e5 | inactive |
| ringer (ringmaker) | DRSC10455 | – | – | – | 7674 | 4.63e5 | inactive |
| Cyp313a2 (Cytochrome P450 313a2) | DRSC16625 | – | – | – | 6379 | 3.38e5 | inactive |
| Taf2 (TBP-associated factor 2) | DRSC11298 | – | – | – | 6762 | 5.81e5 | inactive |
| ago (archipelago) | DRSC08463 | – | – | reporter ratio raised past the hit cutoff | 6406 | 2.99e5 | active |
| Tasp1 (Taspase 1) | DRSC10495 | – | – | – | 7851 | 3.06e5 | inactive |
| CG33235 | DRSC19641 | – | – | – | 4559 | 4.43e5 | inactive |
| Cpr64Ad (Cuticular protein 64Ad) | DRSC08284 | – | – | – | 7728 | 4.49e5 | inactive |
| CG12078 | DRSC08242 | – | – | – | 4995 | 4.29e5 | inactive |

Individual results from the list:
Entry of CG31091 [DRSC15933] under “stable assay Renilla, run 1 (luminescence)”: 6542
Entry of CG6479 [DRSC10647] in “stable assay Renilla, run 1 (luminescence)”: 8295
Under “stable assay firefly, run 1 (luminescence)”, CG2070 [DRSC06814] has 3.74e5
Value for CG31321 [DRSC13028] in “stable assay firefly, run 1 (luminescence)”: 5.42e5
CanB2 (Calcineurin B2) [DRSC07355], stable assay Renilla, run 1 (luminescence) → 2648
